{"source": "PubChem BioAssay AID1688", "about": "(National Center for Advancing Translational Sciences (NCATS), 2009)", "note": "Screen size: about 220,000 compounds; about 2,400 (1.1%) were called active. Inconclusive results, whose numbers are uncertain, are shown with a selection of clear calls. The call rests on the fitted dose curve; in most records, active means well fitted inhibition curve with a large enough effect; inconclusive means small, poorly fitted or top-dose-only effect, or effect the other way; inactive means no such curve, though single readings can be large or run the other way. Potencies of inconclusive entries are doubtful fits and often do not repeat. On the % scale 0 is the no-effect control and ±100 the full control effect; potency means the concentration at half of the fitted maximal effect."}
{"experiment": "qHTS Multiplex Assay to Identify Dual Action Probes in a Cell Model of Huntington: Aggregate Formation (GFP); further: nearly all actives have a fitted effect of over 60% in size", "conditions": "PC12 HttQ103-GFP aggregates, Acumen cytometry, 40 h; activity change, negative = inhibition: at 46.1 µM (top of the series) unless noted", "how_it_was_run": "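PC12 cells stably carrying ecdysone-inducible HTT exon 1 Q103–GFP were induced with tebufenozide (100 nM final) and treated with library compounds in titration. GFP aggregates in lysates were counted by laser scanning cytometry.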"}
{"smiles": "COc1ccc(-c2noc(CSc3nnc(Cc4ccccc4)n3-c3ccc(Cl)cc3)n2)cc1", "Potency": "inconclusive: 14.1 µM [inhibitor, single point]"}
{"smiles": "C=CCOc1ccc(/C=N/NC(=O)CN2CCOCC2)cc1OCC", "activity change, negative = inhibition": "inactive: 21.9%"}
{"smiles": "CCCSc1nc(N)c(C#N)c(-c2ccc(C)cc2)c1C#N", "Potency": "inconclusive: 0.708 µM [activator, single point]"}
{"smiles": "O=C1CSC(=Nc2cc(Cl)ccc2Cl)N1", "activity change, negative = inhibition": "inactive: -19%"}
{"smiles": "COCCCNc1ncnc2sc3c(c12)CCC(C)C3", "note": "(configuration not stated)", "Potency": "inconclusive: 35.5 µM [inhibitor, single point]"}
{"smiles": "CC(=O)NCCc1nc2ccccc2[nH]1", "Potency": "inconclusive: 6.31 µM [inhibitor, single point]"}
{"smiles": "Cc1ccc(C(=O)C2CCN(CC(=O)Nc3nc(C)cs3)CC2)cc1", "Potency": "inconclusive: 15.8 µM [inhibitor, single point]"}
{"smiles": "CC(=O)c1ccc(NS(=O)(=O)c2ccc(CC(C)C)cc2)cc1", "activity change, negative = inhibition": "inactive: -2.35% [at 9.22 µM]"}
{"smiles": "CC1CCN(C(=O)CSc2nc3ccccc3s2)CC1", "activity change, negative = inhibition": "inactive: 0.0578%"}
{"smiles": "C=CCOC(=O)/C(=C/c1cccc2ccccc12)NC(=O)c1ccccc1", "activity change, negative = inhibition": "inactive: -6.96%"}
{"smiles": "O=C1CC(c2ccc(Cl)cc2)n2nc(NS(=O)(=O)c3ccc(F)cc3)nc2N1", "note": "(configuration not stated)", "Potency": "inconclusive: 31.6 µM [inhibitor, single point]"}
{"smiles": "CC(C)c1nc(SCC(=O)N2CCCc3ccccc32)c2c(=O)n(C)c(=O)n(C)c2n1", "Potency": "inconclusive: 35.5 µM [inhibitor, single point]"}
{"smiles": "CCCOc1ccc(-c2nc(C#N)c(NCCCn3ccnc3)o2)cc1", "Potency": "inconclusive: 12.6 µM [inhibitor, partial curve]"}
{"smiles": "CCC(=O)c1cc2c(C)cc(=O)oc2c(C)c1OC(C)=O", "Potency": "inconclusive: 11.2 µM [inhibitor, partial curve]"}
{"smiles": "O=C1OC2(CCCCC2)OC(=O)C1=CNc1nc2ccccc2s1", "activity change, negative = inhibition": "inactive: 14.2%"}
{"smiles": "CCOC(=O)C1C(=O)C=C(c2cccs2)CC1c1ccccc1C", "note": "(configuration not stated)", "Potency": "inconclusive: 3.16 µM [inhibitor, single point]"}
{"smiles": "CCOc1ccc2nc(SCC(=O)c3cccs3)sc2c1", "activity change, negative = inhibition": "inactive: 5%"}
{"smiles": "O=C(CN(C1CCCCC1)S(=O)(=O)c1ccc(Cl)cc1)NCc1ccncc1", "activity change, negative = inhibition": "inactive: -8.66%"}
{"smiles": "CCOC(=O)c1c(NC(=O)COc2cccc3c2CCN(C)C3=O)sc2c1CCC2", "Potency": "inconclusive: 11.2 µM [inhibitor, single point]"}
{"smiles": "COc1ccc(-n2c(O)c(/C=N/NS(=O)(=O)c3ccc(C)cc3)c3ccccc3c2=O)cc1OC", "Potency": "inconclusive: 15.8 µM [inhibitor, single point]"}
{"smiles": "CC(C)(C)c1ccc(Cn2cnc(-c3ccc([N+](=O)[O-])cc3)c2)cc1", "Potency": "inconclusive: 35.5 µM [inhibitor, single point]"}
{"smiles": "Cc1ccccc1C(=O)Nc1cccc(C(=O)N/N=C/c2cc(Cl)cc([N+](=O)[O-])c2O)c1", "Potency": "active: 2.82 µM"}
{"smiles": "Cc1cc2cc(CNC(=O)NC3CCCCC3)ccc2[nH]1", "Potency": "inconclusive: 0.562 µM [inhibitor, partial curve, poor fit]"}
{"smiles": "CCN(CC)S(=O)(=O)c1ccc(Oc2cccc(C(C)=O)c2)nc1", "Potency": "active: 5.62 µM"}
{"smiles": "CC[n+]1c(C=C2C=C(C)OC(C)=C2)sc2ccccc21", "Potency": "active: 3.98 µM"}
{"smiles": "Cc1ccc(CSc2nnc(C)c(=O)[nH]2)cc1", "activity change, negative = inhibition": "inactive: -5.42%"}
{"smiles": "COc1ccc(Nc2nc(NN)nc(C)c2[N+](=O)[O-])cc1", "Potency": "inconclusive: 11.2 µM [inhibitor, single point]"}
{"smiles": "CC(C)(C)C1C/C(=C/c2ccco2)C(=O)/C(=C/c2ccco2)C1", "note": "(configuration not stated)", "Potency": "inconclusive: 35.5 µM [inhibitor, single point]"}
{"smiles": "O=C(NCc1cccnc1)c1c[nH]c2cc3c(cc2c1=O)OCCO3", "Potency": "inconclusive: 22.4 µM [inhibitor, partial curve]"}
{"smiles": "C=CCNc1nc2c(c(=O)n(C)c(=O)n2C)n1CCCCCC", "Potency": "inconclusive: 0.794 µM [activator, full curve, poor fit]"}
{"smiles": "CCCC1CCC(C(=O)n2nc(N)c3cc4ccc(OC)cc4nc32)CC1", "note": "(configuration not stated)", "Potency": "inconclusive: 6.31 µM [inhibitor, full curve]"}
{"smiles": "O=c1cc(CSc2nnnn2-c2ccccc2)nc2sccn12", "activity change, negative = inhibition": "inactive: 5.63%"}
{"smiles": "O=C(Nc1ccc(F)cc1)c1cc(Cl)sc1Cl", "Potency": "inconclusive: 35.5 µM [inhibitor, single point]"}
{"smiles": "O=[N+]([O-])c1ccc(S(=O)(=O)CC2CSc3nc4ccccc4n32)cc1", "note": "(configuration not stated)", "activity change, negative = inhibition": "inactive: -30.1%"}
{"smiles": "COc1ccc2nc(NC(=O)C3COc4ccccc4O3)sc2c1", "note": "(configuration not stated)", "Potency": "inconclusive: 25.1 µM [inhibitor, single point]"}
{"smiles": "Cc1ccc(S(=O)(=O)N/N=C\\c2ccc(Cl)c([N+](=O)[O-])c2)cc1", "activity change, negative = inhibition": "inactive: -3.21%"}
{"smiles": "O=c1c2c3c(sc2n(CCN2CCOCC2)c(=O)n1Cc1ccco1)CCCCC3", "Potency": "inconclusive: 35.5 µM [inhibitor, single point]"}
